The values that follow come from article PMC3776929.

Amino acid sequences for entries named in this document (tags omitted).
UniProt Q05471: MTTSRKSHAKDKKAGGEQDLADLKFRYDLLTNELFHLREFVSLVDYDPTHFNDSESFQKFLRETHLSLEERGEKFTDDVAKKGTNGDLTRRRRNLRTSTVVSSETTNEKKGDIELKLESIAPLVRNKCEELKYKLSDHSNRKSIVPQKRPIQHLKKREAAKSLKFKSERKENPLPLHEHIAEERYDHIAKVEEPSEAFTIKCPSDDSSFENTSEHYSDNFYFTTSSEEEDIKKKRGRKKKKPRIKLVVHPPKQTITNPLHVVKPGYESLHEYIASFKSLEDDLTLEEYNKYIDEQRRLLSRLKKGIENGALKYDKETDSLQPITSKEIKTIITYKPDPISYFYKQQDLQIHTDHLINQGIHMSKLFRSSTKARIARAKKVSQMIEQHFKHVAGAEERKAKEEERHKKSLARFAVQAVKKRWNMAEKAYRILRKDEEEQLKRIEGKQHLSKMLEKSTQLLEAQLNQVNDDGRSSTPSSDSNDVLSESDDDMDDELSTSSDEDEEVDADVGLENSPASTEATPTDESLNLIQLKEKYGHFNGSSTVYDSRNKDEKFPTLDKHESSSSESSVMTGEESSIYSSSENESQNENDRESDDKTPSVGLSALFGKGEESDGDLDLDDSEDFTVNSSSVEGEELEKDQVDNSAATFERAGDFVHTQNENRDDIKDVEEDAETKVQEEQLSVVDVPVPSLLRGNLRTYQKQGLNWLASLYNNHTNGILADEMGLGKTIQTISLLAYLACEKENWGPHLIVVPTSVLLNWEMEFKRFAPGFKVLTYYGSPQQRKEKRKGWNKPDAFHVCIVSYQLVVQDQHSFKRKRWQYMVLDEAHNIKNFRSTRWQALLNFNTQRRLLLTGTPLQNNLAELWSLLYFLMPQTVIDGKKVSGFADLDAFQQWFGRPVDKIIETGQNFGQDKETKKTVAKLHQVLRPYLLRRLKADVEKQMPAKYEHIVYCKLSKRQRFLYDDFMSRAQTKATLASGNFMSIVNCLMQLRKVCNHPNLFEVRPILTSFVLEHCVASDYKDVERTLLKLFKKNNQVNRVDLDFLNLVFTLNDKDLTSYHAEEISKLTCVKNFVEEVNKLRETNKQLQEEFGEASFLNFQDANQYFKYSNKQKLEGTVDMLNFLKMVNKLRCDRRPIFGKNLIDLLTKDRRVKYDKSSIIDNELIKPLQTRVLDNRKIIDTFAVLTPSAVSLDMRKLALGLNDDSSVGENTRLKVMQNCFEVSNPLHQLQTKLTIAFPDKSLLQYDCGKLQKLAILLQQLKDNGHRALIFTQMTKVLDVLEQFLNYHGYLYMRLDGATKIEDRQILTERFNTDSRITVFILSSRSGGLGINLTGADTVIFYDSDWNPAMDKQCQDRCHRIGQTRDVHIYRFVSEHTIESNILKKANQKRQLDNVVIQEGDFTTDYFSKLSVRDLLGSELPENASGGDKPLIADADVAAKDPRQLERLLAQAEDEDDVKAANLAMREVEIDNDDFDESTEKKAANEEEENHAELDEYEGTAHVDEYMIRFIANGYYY

The target of the test is Swr1, FLAG-tagged catalytic subunit of the SWR1 complex (S. cerevisiae) (UniProt Q05471). As to the kind of experiment: co-IP; FLAG affinity purification of SWR1 (or a subcomplex) from S. cerevisiae, eluted with 3× FLAG peptide; SDS-PAGE (4%-12% Bis-Tris), Coomassie or SYPRO Orange stain; band intensities normalised for protein size for the stoichiometry.

These are yes or no findings as the source states them, for the method shown. In cells and extracts the contact can be indirect. Some binding calls cover weakened binding; strength is not graded here.

B1: Arp4 (protein, UniProt P80428 1-489)
chain: MSNAALQVYGGDEVSAVVIDPGSYTTNIGYSGSDFPQSILPSVYGKYTADEGNKKIFSEQSIGIPRKDYELKPIIENGLVIDWDTAQEQWQWALQNELYLNSNSGIPALLTEPVWNSTENRKKSLEVLLEGMQFEACYLAPTSTCVSFAAGRPNCLVVDIGHDTCSVSPIVDGMTLSKSTRRNFIAGKFINHLIKKALEPKEIIPLFAIKQRKPEFIKKTFDYEVDKSLYDYANNRGFFQECKETLCHICPTKTLEETKTELSSTAKRSIESPWNEEIVFDNETRYGFAEELFLPKEDDIPANWPRSNSGVVKTWRNDYVPLKRTKPSGVNKSDKKVTPTEEKEQEAVSKSTSPAANSADTPNETGKRPLEEEKPPKENNELIGLADLVYSSIMSSDVDLRATLAHNVVLTGGTSSIPGLSDRLMTELNKILPSLKFRILTTGHTIERQYQSWLGGSILTSLGTFHQLWVGKKEYEEVGVERLLNDRFR
As for B1, the binding entry is “binds”.

B2: Bdf1 (protein, UniProt P35817 1-686)
chain: MTDITPVQNDVDVNGNNVNDDVSSNLKRPIDQGDPSNGLAEEENPANNQLHLKKARLDGDALTSSPAGLAENGIEGATLAANGENGYNATGSGAEDEQQGLKKEEGGQGTKQEDLDENSKQELPMEVPKEPAPAPPPEPDMNNLPQNPIPKHQQKHALLAIKAVKRLKDARPFLQPVDPVKLDIPFYFNYIKRPMDLSTIERKLNVGAYEVPEQITEDFNLMVNNSIKFNGPNAGISQMARNIQASFEKHMLNMPAKDAPPVIAKGRRSSAQEDAPIVIRRAQTHNGRPKRTIHPPKSKDIYPYESKKPKSKRLQQAMKFCQSVLKELMAKKHASYNYPFLEPVDPVSMNLPTYFDYVKEPMDLGTIAKKLNDWQYQTMEDFERDVRLVFKNCYTFNPDGTIVNMMGHRLEEVFNSKWADRPNLDDYDSDEDSRTQGDYDDYESEYSESDIDETIITNPAIQYLEEQLARMKVELQQLKKQELEKIRKERRLARGSKKRGKRSKGRSGSKNASSKGRRDKKNKLKTVVTYDMKRIITERINDLPTSKLERAIDIIKKSMPNISEDDEVELDLDTLDNHTILTLYNTFFRQYESSSGASNGLDGTSGVTRDASSLSPTSAGSRKRRSKALSQEEQSRQIEKIKNKLAILDSASPLSQNGSPGQIQSAAHNGFSSSSDDDVSSESEEE
For B2, the binding entry is recorded as “binds”.

B3: Yaf9 (protein, UniProt P53930 1-226)
chain: MAPTISKRIKTLSVSRPIIYGNTAKKMGSVKPPNAPAEHTHLWTIFVRGPQNEDISYFIKKVVFKLHDTYPNPVRSIEAPPFELTETGWGEFDINIKVYFVEEANEKVLNFYHRLRLHPYANPVPNSDNGNEQNTTDHNSKDAEVSSVYFDEIVFNEPNEEFFKILMSRPGNLLPSNKTDDCVYSKQLEQEEIDRIEIGIEKVDKEIDELKQKLENLVKQEAINGS
In the case of B3, the binding result was “binds”.
